Results: patent US20170166895
For part of these data: No signal at the amounts used counts as a negative. For part of these data: For at least one entry, the source does not settle the construct or the ends of the probe.

Chains of the proteins cited; added tags and fusions are not shown. A line that says so, or that is headed by a name, gives the form on record, which may keep a tag or linker.
Complement component 5 (C5) (Homo sapiens), one chain, as listed by the source, chain 2 of 2: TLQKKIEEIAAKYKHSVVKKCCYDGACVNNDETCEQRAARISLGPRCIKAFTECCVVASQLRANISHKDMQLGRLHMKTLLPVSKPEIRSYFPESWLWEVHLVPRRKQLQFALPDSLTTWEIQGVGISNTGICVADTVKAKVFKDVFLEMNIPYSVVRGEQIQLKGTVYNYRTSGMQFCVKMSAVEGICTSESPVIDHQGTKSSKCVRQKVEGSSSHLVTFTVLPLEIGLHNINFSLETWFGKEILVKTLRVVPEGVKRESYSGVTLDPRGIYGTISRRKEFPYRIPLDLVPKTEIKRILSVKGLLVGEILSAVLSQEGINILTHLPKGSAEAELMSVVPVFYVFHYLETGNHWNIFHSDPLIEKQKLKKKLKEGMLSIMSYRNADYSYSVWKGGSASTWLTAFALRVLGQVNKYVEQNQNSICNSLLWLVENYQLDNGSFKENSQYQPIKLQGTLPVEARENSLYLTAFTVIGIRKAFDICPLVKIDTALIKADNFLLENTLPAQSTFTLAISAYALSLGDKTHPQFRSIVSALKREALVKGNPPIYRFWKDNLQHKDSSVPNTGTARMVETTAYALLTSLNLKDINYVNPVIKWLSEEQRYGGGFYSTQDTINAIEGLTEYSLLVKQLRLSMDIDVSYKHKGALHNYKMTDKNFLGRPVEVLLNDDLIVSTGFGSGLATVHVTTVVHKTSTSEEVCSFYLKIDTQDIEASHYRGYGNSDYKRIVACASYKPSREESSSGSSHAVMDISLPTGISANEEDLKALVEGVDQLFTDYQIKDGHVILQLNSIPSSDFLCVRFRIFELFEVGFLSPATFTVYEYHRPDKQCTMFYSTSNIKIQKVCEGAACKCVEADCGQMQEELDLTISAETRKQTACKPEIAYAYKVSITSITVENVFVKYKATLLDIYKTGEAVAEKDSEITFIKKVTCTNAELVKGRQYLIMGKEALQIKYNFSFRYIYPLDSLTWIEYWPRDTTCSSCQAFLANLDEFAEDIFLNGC
Complement component 3 (C3) (Homo sapiens), one chain, as listed by the source, chain 2 of 2: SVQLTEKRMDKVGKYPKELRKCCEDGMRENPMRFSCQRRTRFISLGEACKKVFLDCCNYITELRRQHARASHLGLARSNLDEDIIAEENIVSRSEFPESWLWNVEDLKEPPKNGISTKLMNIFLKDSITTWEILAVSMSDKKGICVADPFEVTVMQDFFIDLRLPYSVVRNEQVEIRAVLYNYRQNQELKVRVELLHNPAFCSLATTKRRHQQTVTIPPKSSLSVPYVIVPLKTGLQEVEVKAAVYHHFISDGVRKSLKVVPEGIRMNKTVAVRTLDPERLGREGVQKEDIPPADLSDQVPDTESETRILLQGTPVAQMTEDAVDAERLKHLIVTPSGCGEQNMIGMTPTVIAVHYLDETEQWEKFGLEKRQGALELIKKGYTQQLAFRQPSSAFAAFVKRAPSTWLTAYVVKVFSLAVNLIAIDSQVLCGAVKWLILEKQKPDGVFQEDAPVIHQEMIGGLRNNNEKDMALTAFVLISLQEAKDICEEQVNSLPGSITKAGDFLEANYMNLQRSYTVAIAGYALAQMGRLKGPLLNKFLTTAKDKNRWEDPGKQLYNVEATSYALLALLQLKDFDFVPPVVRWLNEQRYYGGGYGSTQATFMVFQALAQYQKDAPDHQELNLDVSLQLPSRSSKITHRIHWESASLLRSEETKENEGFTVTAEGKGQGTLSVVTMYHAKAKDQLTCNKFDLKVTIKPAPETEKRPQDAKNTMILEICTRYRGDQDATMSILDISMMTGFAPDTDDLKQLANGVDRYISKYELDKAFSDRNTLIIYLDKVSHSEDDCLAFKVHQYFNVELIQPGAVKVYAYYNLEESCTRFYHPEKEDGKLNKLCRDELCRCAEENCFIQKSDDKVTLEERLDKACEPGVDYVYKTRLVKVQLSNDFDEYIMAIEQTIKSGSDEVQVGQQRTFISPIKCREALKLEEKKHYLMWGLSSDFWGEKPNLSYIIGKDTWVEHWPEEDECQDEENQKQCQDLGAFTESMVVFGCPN
Complement component 5 (C5) (Homo sapiens), one chain, as listed by the source, chain 1 of 2: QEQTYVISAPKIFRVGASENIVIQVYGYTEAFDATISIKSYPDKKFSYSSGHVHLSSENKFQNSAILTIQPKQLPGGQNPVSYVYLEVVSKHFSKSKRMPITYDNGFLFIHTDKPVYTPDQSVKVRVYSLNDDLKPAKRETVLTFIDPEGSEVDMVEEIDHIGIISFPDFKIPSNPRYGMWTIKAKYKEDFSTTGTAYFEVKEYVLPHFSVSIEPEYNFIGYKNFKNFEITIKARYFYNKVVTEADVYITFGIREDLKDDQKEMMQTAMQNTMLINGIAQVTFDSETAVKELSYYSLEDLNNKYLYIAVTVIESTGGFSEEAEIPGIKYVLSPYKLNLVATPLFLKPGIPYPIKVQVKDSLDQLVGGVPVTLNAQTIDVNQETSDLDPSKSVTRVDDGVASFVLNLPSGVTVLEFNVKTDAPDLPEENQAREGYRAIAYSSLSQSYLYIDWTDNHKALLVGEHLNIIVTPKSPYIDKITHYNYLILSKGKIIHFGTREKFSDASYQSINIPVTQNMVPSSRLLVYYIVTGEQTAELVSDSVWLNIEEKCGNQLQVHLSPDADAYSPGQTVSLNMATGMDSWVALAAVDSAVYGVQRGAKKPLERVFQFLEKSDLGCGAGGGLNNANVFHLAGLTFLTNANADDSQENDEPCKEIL
Complement component 3 (C3) (Homo sapiens), one chain, as listed by the source, chain 1 of 2: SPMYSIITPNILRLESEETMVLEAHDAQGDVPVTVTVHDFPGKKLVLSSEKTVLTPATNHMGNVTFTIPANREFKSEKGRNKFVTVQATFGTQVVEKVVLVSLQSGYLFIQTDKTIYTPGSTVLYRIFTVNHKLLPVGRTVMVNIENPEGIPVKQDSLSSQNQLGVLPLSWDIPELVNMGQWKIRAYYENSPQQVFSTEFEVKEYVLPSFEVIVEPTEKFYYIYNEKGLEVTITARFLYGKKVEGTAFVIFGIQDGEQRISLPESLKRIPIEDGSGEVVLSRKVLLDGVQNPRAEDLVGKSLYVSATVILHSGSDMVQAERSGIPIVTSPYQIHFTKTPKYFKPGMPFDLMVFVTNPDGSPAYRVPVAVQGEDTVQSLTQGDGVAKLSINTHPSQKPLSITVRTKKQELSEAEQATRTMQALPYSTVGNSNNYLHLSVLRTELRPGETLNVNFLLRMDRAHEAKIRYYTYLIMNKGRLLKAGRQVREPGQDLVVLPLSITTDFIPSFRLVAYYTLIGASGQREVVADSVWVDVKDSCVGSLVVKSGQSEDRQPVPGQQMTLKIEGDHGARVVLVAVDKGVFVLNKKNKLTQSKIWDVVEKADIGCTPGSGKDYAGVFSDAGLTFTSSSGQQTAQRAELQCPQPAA

Legend:
[1] = test system: Complement component 3 (C3) (Homo sapiens); assay: filter binding; conditions: 3'-3' idT, purified recombinant protein, single-stranded DNA; for binding result: all U in listing = NapdU, NB, no binding; for Kd: all U = NapdU, NB up to 100 nM C3
[2] = test system: Complement component 3 (C3) (Homo sapiens); assay: inhibition of the protein; conditions: P = NapdU (all U), 3'-3' idT, 20 nM C3, GVB++, 37 C, single-stranded DNA
[3] = test system: Complement component 5 (C5) (Homo sapiens); assay: filter binding; conditions: all U = NapdU, 3'-3' idT, no discernible binding up to 1e-7 M C5, single-stranded DNA

“ACTCCCGUGACUCGAUGAGUCAUAGUCGGUUCCGUCCGAACGCGGAGGA [8491-398_3]”: no binding [1].
“ACTCCGAGUACUUCGACUCAAUAGUCCGUUACGUUUGGCCGGCAGGCGAGGA [8491-401_3]”: no binding [1].
Sequence “CAGUGACUCAAUAGUCCAUACAUUCCCA [8491-94_126]” has a Kd ([1]; 2'-OMe at 1,3,5,7,9,10,13,19,20,23-27, variant of 8491-94_53) of over 0.1 µM.
In the case of “CCGGUGACUAAUAGUCCGUACGUUCCCGG [8491-94_37]”, the IC50 ([2]; C3-spacer replaces C10, hemolysis, purified native protein, variant of 8491-94_26) is reported as 0.0247 µM.
“CCGGUGACUCAAUAGUCCGUACGUUCCCGGUCCGAACGCG [8491-94_3]” gave an IC50 ([2]; 5 bases of each flanking primer also present (not shown), hemolysis of sheep red blood cells, C3a release in 34% serum IC50 2 uM, purified native protein) of 0.0148 µM.
“CCGGUGACUCAAUAGUCCGUACUUCCCGG [8491-94_47]” gave a Kd ([1]; C3-spacer replaces G23, variant of 8491-94_26) of over 0.1 µM.
For “CCGGUGACUCAAUAGUCCGUAGUUCCCGG [8491-94_46]”, the Kd ([1]; C3-spacer replaces C22, variant of 8491-94_26) was over 0.1 µM.
Sequence “CCGGUGACUCAAUAGUCGUACGUUCCCGG [8491-94_43]” has an IC50 ([2]; C3-spacer replaces C18, hemolysis, purified native protein, variant of 8491-94_26) of 0.0192 µM.
For “CCGGUGAUCAAUAGUCCGUACGUUCCCGG [8491-94_36]”, the IC50 ([2]; C3-spacer replaces C8, hemolysis, purified native protein, variant of 8491-94_26) was 0.025 µM.
“CGGUGACUCAAUAGUCCGUACGUUCCCG [8491-94_53]”: no binding ([3]; variant of 8491-94_3).
Sequence “CGGUGACUCAAUAGUCCGUACGUUCCCG [8491-94_91]” has a Kd ([1]; 2'-OMe at 1,3,5,7,10,13,19,23,24,28, variant of 8491-94_53) of over 0.1 µM.
Work on “CGGUGACUCAAUAGUCCGUACGUUCCCG [8491-94_92]” yielded a Kd ([1]; 2'-OMe at 1,3,5,7,10,13,19,23,24,25,28, variant of 8491-94_53) of over 0.1 µM.
“CGGUGACUCAAUAGUCCGUACGUUCCCG [8491-94_97]”: no binding ([3]; 2'-OMe at 1,2,3,5,7,9,10,13,19,20,22-28, variant of 8491-94_53).
With “CGGUGACUCAAUAGUCCGUACGUUCCCGG [8491-94_30]” the IC50 ([2]; C3-spacer replaces C1, hemolysis, purified native protein, variant of 8491-94_26) was 0.0209 µM.
CGGUGAUCAAUAGUCGUACGUUCCG [8491-94_100] showed an IC50 ([2]; 2'-OMe at 1,2,3,5,9,10,13,19,20,22,23,24,26,27,28, C3-spacer at 7,17,25, hemolysis, purified native …, variant of 8491-94_53) of 0.0197 µM.
